Drawing on publication PMC9733572, this text covers binding for two substances.

Sequences of proteins named here, by UniProt entry; tags and fusion partners are left off. Residues count along the entry.
UniProt Q96DU3, residues 22-332: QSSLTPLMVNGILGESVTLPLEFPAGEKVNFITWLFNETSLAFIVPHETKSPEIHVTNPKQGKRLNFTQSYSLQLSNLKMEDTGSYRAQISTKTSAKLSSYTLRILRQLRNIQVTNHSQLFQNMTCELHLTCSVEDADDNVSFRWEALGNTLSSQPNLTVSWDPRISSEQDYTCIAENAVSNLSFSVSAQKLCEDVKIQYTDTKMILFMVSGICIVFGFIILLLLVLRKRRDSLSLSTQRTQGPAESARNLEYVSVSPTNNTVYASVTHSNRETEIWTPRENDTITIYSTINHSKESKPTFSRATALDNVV
UniProt P43403: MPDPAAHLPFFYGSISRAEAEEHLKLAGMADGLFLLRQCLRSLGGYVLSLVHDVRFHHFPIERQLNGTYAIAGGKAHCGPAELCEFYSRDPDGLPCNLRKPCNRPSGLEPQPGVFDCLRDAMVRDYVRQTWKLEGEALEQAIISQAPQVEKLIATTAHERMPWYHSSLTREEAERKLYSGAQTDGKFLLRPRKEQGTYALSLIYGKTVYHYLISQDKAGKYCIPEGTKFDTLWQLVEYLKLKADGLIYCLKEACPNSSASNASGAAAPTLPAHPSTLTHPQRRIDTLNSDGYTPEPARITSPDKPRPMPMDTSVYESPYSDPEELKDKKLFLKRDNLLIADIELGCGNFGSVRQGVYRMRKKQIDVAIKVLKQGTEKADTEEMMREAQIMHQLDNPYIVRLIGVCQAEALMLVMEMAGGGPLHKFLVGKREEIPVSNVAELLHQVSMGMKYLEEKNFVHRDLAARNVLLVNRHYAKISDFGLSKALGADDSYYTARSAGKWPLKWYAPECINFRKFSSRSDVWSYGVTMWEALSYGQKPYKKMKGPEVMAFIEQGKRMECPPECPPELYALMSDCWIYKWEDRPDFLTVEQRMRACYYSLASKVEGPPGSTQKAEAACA
UniProt P06239: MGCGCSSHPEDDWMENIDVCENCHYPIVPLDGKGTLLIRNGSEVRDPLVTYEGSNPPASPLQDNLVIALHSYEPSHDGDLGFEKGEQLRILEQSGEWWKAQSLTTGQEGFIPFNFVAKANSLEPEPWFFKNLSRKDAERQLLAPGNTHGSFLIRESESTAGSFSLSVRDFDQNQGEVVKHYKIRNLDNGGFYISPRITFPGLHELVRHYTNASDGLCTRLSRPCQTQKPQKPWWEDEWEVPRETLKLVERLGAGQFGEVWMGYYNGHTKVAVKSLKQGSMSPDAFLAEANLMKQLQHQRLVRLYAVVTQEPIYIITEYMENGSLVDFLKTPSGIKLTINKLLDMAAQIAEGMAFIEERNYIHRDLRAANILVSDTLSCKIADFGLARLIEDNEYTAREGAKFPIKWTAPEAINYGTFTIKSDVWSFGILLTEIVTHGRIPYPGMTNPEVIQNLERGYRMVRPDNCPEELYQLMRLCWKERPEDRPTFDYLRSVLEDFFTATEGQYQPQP

The experiment concerns the target V5-tagged SLAMF6 (UniProt Q96DU3). Description: affinity purification with mass spectrometry; V5-SLAMF6 Jurkat T cells stimulated 15 min with plate-coated anti-CD3 + anti-SLAMF6 (plate) or plate-coated anti-CD3 + soluble anti-SLAMF6 (soluble); lysis in 1% NP-40, 25 mM Tris pH 8.0, 150 mM NaCl, 1 mM EDTA, 5% glycerol; anti-V5 agarose beads; gel, mass spectrometry.

These are yes or no findings as the source states them, for the method shown. Binding seen in cells or lysates may run through a third protein. These calls come from enrichment with a bait or labelling near it, and not all partners need be listed.

Consider “ZAP70 (from UniProt P43403 1-619) (enzyme)”, for which the binding entry was “binds”.
In the case of “LCK (from UniProt P06239 1-509) (enzyme)”, the binding result is listed as “binds”.
